For this test, the target named is mouse FcγRIIb on macrophages (mouse) (UniProt P08101). Kind of test: two-color flow cytometry on mouse peritoneal macrophages (FcR γ-chain-/-), FITC-2C10 detection.

Protein sequences, listed by entry. Tags and fused reporters are not part of them. Residues count along the entry.
UniProt P08101, residues 30-330: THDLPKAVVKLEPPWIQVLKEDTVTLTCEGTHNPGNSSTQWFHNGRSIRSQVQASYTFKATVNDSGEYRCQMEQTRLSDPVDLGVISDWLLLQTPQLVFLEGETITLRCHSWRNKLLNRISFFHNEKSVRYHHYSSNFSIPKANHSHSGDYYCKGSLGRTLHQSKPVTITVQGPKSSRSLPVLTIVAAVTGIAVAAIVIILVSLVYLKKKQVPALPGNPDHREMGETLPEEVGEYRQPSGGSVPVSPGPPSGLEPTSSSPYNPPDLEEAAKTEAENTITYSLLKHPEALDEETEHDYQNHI

Results are given in words; binding and its absence hold for the method and conditions named. Some entries that bind do so weakly or less than the wild type.

B1: Y175L CRP (recombinant mutant C-reactive protein in which tyrosine 175 is replaced by leucine) (ligand)
chain: QTDMSRKAFVFPKESDTSYVSLKAPLTKPLKAFTVCLHFYTELSSTRGYSIFSYATKRQDNEILIFWSKDIGYSFTVGGSEILFEVPEVTVAPVHICTSWESASGIVEFWVDGKPRVRKSLKKGYTVGAEASIILGQEQDSFGGNFEGSQSLVGDIGNVNMWDFVLSPDEINTILLGGPFSPNVLNWRALKYEVQGEVFTKPQLWP
notes: also called CRP mutant Y175L; recombinant mutant CRP (Y175L)
Take B1: the binding entry is “binds”.

The record behind these values is patent publication US20110142812A1 (STC UNM, published 2011).
